Results published in the supplement of paper PMC12823440, “Inhibitors supercharge kinase turnover through native proteolytic circuits” (Nature, 2025).
Structures can show the parent of a compound that is named as a salt. This is one part of the list. Hit calls seldom repeat between salt and free forms of one compound.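 Kinases were expressed as nanoluciferase fusions in K562 cells and luminescence was read every 4 h between 2 and 18 h as percent of control, DMSO set to 100% and a positive control to 0%. A time point counts as decreased when the signal drops significantly (2 sigma). The hit call is the authors' own, does not follow from the count of time points alone, and its rule is not shown.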

Chains of the proteins cited; added tags and fusions are not shown.
UniProt P07949, whole entry M918T, looked up: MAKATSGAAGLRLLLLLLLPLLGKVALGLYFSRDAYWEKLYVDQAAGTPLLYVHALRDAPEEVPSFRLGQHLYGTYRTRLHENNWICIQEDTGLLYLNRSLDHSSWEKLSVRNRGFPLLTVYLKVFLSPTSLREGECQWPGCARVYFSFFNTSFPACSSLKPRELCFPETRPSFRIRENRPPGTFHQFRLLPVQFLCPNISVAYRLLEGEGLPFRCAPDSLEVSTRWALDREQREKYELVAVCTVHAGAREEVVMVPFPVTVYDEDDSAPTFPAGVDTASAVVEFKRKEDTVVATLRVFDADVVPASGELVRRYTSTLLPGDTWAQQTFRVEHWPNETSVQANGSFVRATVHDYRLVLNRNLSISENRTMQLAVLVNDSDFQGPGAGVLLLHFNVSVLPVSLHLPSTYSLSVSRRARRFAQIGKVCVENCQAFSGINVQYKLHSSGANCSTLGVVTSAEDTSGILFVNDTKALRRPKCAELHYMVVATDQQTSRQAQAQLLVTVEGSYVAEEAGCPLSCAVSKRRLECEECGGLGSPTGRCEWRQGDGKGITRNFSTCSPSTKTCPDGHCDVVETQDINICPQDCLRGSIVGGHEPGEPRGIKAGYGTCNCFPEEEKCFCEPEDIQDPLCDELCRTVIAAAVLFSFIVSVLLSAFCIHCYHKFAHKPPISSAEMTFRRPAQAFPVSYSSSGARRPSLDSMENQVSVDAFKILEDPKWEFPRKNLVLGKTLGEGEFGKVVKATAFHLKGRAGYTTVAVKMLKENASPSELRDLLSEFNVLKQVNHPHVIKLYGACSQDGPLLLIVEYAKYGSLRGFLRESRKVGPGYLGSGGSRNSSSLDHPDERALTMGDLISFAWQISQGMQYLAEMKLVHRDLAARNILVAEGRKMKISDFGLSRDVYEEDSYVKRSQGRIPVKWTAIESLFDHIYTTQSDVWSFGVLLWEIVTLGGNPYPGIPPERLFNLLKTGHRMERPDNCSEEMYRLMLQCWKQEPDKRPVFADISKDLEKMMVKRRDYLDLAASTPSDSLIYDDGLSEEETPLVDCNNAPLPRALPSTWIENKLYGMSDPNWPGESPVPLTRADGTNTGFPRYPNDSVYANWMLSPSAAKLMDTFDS

Biological target: RET_M918T (clone: RET_mut) (UniProt P07949)
Experiment: number of time points (of 5) at which kinase-Nluc abundance scored as decreased, DMSO-normalised (count); higher = more persistent destabilization
Conditions: K562; 2-18 h

SMILES | number of time points
COc1ccc(Br)c(C=O)c1O [6-Bromo-2-hydroxy-3-methoxybenzaldehyde] (10 µM) | 0
O=C1C=CC2=C3c4cc(O)c(O)cc4CC3(O)COC2=C1O (centres undefined) [Hematein] (10 µM) | 0
Cc1cccc(CC(=O)N2CCc3c2ccc(-c2cn(C)c4ncnc(N)c24)c3F)n1 (10 µM) | 0
COCCOc1cnc2ccn([C@H](C)c3nnc4c(F)cc(-c5cnn(C)c5)cn34)c(=O)c2c1 (10 µM) | 0
Cn1cc(C2=C(c3ccc(Cl)cc3Cl)C(=O)NC2=O)c2ccccc21 (10 µM) | 0
COc1cc(N2CCC(N3CCN(C)CC3)CC2)ccc1Nc1ncnc(Nc2ccccc2S(=O)(=O)C(C)C)n1 (10 µM) | 0
COc1c(Nc2ncc(Cl)c(N[C@H]3[C@@H](C(N)=O)[C@@H]4C=C[C@H]3C4)n2)ccc2c1CC[C@@H](N1CCOCC1)CC2 (10 µM) | 0
Cc1ccc(NC(=O)N2CCN(c3nc(N)nc4sc(-c5cccnc5)nc34)CC2)cc1 [PI4KIII beta inhibitor 3] (10 µM) | 0
CNc1cc2c(Nc3cccc(Br)c3)ncnc2cn1 (10 µM) | 0
CC(C)n1c(CO)nc2c(F)cc(-c3nc(Nc4ccc(CN5CCNCC5)cn4)ncc3F)cc21 (10 µM) | 4
CN1CCC(Nc2ccc(C(=O)Nc3cc(-c4ccc5c(c4)OCO5)[nH]n3)cc2)CC1 (10 µM) | 1
CNC(=O)CN1CCC(Oc2cc3c(Nc4cccc(Cl)c4F)ncnc3cc2OC)CC1 [Sapitinib] (10 µM) | 0
O=C(O)c1c[nH]c2cc(Cl)c(-c3ccc(C4(O)CCC4)cc3)cc12 (10 µM) | 0
COc1cc(N2CCC(O)CC2)ccc1Nc1nc(Nc2ccccc2S(=O)(=O)C(C)C)c2[nH]cnc2n1 (10 µM) | 0
O=c1c(O)c(-c2ccc(O)c(O)c2)oc2cc(O)c(O)c(O)c12 [Quercetagetin] (10 µM) | 0
Cc1ncsc1-c1ccc(CNC(=O)[C@@H]2C[C@@H](O)CN2C(=O)[C@@H](NC(=O)COCCOc2ccc(-c3cc(Nc4ccc(OC(F)(F)F)cc4)ncn3)cc2)C(C)(C)C)cc1 (2.5 µM) | 1
COc1cc(Nc2ccnc3ccc(Br)cc23)cc(OC)c1OC (2.5 µM) | 0
Cc1ccc2c(NS(=O)(=O)c3ccccc3Cl)cccc2c1Oc1ncccc1-c1ccnc(N[C@H]2CCCNC2)n1 (2.5 µM) | 0
CC(C)c1cc2c(c(O)c1O)[C@@]13CCCC(C)(C)[C@@H]1C[C@@H]2OC3=O [Carnosol] (2.5 µM) | 0
Cc1nc2c(NCc3cccc(S(C)(=O)=O)c3)nccn2c1-c1ccc(O)c(F)c1 (10 µM) | 0

A run of entries from further up, for reference:
SMILES | number of time points
Cc1ncsc1-c1ccc(CNC(=O)[C@@H]2C[C@@H](O)CN2C(=O)[C@@H](NC(=O)COCCOc2ccc(-c3cc(Nc4ccc(OC(F)(F)F)cc4)ncn3)cc2)C(C)(C)C)cc1 (2.5 µM) | 1
COc1cc(Nc2ccnc3ccc(Br)cc23)cc(OC)c1OC (2.5 µM) | 0

Additional results

SMILES | number of time points
CC(C)n1cnc2c(Nc3cccc(Cl)c3)nc(N[C@H]3CCCC[C@@H]3N)nc21 (2.5 µM) | 0
O=c1cc(N2CCOCC2)oc2c(-c3cccc4c3sc3ccccc34)cccc12 (10 µM) | 0
C[C@@H]1COC(Nc2ccc3ncnc(Nc4ccc(OCc5nccs5)c(Cl)c4)c3c2)=N1 [Varlitinib] (10 µM) | 0
Cc1cncc2cccc(S(=O)(=O)N3CCCNC[C@@H]3C)c12 [H-1152 (dihydrochloride)] (10 µM) | 0
CCC[C@H](C)Oc1nc(N)c2[nH]c(=O)n(CCCCCN3CCCCC3)c2n1 (10 µM) | 0
CC(C)(Oc1ccc(Cl)cc1)C(=O)Nc1ccc(OCc2ccc(C#N)cc2)cc1 [AMPK activator 4] (10 µM) | 0
Cc1cc(N2CCOCC2)ccc1Nc1nc(NC2CCCCC2)c2[nH]cnc2n1 (10 µM) | 0
CC(ONC(=O)c1cc(C(F)(F)F)cc(C(F)(F)F)c1)C(=O)Nc1ccc(Cl)cc1 (centres undefined) (2.5 µM) | 0
O=S(=O)(c1ccc(O)cc1O)N1Cc2cc(O)cc(O)c2C1 (10 µM) | 0
CN1CCN(c2ccc(-n3cc(-c4ccncc4OCC4CCNCC4)cn3)cc2)CC1 [MELK-8a (hydrochloride)] (10 µM) | 0
CCCCC(=O)OCC(=O)[C@]1(O)Cc2c(O)c3c(c(O)c2[C@@H](O[C@H]2C[C@H](NC(=O)C(F)(F)F)[C@H](O)[C@H](C)O2)C1)C(=O)c1c(OC)cccc1C3=O [Valrubicin] (10 µM) | 0
CC(C)=CCC[C@](C)(O[C@@H]1O[C@H](CO[C@@H]2O[C@H](CO)[C@@H](O)[C@H](O)[C@H]2O)[C@@H](O)[C@H](O)[C@H]1O)[C@H]1CC[C@]2(C)[C@@H]1[C@H](O)C[C@@H]1[C@@]3(C)CC[C@H](O[C@@H]4O[C@H](CO)[C@@H](O)[C@H](O)[C@H]4O[C@@H]4O[C@H](CO)[C@@H](O)[C@H](O)[C@H]4O)C(C)(C)[C@@H]3CC[C@]12C [Ginsenoside Rb1] (10 µM) | 0
O=c1cc(-c2ccc(O[C@@H]3O[C@H](CO)[C@@H](O)[C@H](O)[C@H]3O)cc2)oc2cc(O)c([C@@H]3O[C@H](CO)[C@@H](O)[C@H](O)[C@H]3O[C@@H]3OC[C@H](O)[C@H](O)[C@H]3O)c(O)c12 [Vaccarin] (10 µM) | 0
Nc1ccc(Sc2nc3ccccc3s2)c(Cl)c1 [KRAS inhibitor-9] (10 µM) | 0
COc1ccc2cc1Oc1ccc(cc1)C[C@H]1c3cc(c(OC)cc3CCN1C)Oc1c(O)c(OC)cc3c1[C@H](C2)N(C)CC3 [Fangchinoline] (2.5 µM) | 0
Nc1nccc(Oc2ccc3c(C(=O)Nc4cccc(C(F)(F)F)c4)cccc3c2)n1 (10 µM) | 0
CN1C(=O)N[C@@H](Cc2c[nH]c3c(Cl)cccc23)C1=O [Necrostatin 2 (S enantiomer)] (10 µM) | 0
Cc1ncc(-c2cc(F)c(O)c(F)c2)cc1-c1cc(F)c(O)c(F)c1 (10 µM) | 0
N=C(NC(=N)N1CCCC1)Nc1ccc(OC(F)(F)F)cc1 (10 µM) | 0
